Two substances from article PMC6765112, “Specificity of MYB interactions relies on motifs in ordered and disordered contexts” (Nucleic Acids Research, 2019) can be followed below.

Chains of the proteins cited; added tags and fusions are not shown. Lines headed by an entry give the natural chain unless they say otherwise; changes in a name come on top.
UniProt Q9FIP9: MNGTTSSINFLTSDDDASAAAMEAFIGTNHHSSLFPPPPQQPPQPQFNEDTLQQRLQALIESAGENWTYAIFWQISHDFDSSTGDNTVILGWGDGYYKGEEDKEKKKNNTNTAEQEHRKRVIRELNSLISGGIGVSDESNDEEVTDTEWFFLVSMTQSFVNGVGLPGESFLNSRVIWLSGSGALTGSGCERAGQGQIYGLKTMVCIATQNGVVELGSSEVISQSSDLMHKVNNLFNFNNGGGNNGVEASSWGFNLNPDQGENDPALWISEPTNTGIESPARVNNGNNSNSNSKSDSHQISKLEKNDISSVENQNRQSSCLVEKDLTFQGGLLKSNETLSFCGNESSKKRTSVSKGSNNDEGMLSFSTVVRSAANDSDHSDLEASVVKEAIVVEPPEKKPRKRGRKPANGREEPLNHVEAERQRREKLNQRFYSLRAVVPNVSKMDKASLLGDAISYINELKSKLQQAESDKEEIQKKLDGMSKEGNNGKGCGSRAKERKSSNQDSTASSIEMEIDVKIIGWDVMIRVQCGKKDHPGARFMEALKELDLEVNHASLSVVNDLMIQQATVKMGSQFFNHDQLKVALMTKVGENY
UniProt O49687: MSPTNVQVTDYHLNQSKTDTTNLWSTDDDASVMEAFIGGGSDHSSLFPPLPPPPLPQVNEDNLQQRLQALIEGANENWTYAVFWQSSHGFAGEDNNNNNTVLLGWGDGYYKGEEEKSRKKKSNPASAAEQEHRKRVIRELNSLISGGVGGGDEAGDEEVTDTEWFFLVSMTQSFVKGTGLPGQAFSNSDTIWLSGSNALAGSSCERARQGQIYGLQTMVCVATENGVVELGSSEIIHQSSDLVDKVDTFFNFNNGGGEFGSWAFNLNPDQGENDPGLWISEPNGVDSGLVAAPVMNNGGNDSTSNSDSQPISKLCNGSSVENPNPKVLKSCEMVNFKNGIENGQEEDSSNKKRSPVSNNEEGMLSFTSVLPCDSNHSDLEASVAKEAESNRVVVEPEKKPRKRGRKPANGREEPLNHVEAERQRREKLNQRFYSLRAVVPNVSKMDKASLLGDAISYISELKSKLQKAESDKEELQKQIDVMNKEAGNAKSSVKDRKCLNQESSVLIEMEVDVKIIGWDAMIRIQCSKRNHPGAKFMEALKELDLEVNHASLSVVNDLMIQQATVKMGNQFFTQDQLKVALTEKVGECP
UniProt Q9M9U2: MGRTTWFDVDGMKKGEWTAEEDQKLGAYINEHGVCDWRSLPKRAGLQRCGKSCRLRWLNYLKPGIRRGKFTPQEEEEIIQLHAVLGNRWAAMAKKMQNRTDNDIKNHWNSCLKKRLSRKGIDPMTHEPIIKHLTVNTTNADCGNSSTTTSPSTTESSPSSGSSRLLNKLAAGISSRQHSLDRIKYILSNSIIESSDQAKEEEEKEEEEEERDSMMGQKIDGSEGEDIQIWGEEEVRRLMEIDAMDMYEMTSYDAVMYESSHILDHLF
UniProt Q9FE25: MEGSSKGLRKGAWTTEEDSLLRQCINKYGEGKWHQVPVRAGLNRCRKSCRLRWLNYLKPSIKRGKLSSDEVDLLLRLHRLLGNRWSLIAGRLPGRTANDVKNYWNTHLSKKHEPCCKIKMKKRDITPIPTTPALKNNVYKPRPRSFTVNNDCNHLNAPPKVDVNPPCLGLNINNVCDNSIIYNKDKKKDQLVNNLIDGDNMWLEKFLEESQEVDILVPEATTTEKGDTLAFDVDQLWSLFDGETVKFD

No constants are given. Whether binding was seen depends on the method and setting. In cells and extracts the contact can be indirect. For part of these data: A result given as binding can be weak or reduced; the word gives no strength.

Holding throughout (assay): split-ubiquitin assay; chemically inducible dimerization split-ubiquitin system in yeast NMY51 TOR1-1 Δfpr1; bHLH as bait (pFKBP12), MYB as prey (pFRB); drop tests of three colonies on SD-AHLW, 2 days at 30°C; SD-AHLW+Rapa as positive control
Test [1] deals with MYC3 (Arabidopsis thaliana) (UniProt Q9FIP9).
Test [2] deals with MYC4 (Arabidopsis thaliana) (UniProt O49687).
Test [3] concerns the target T1, GL3 (Arabidopsis thaliana) (UniProt Q9FN69).
T1 sequence: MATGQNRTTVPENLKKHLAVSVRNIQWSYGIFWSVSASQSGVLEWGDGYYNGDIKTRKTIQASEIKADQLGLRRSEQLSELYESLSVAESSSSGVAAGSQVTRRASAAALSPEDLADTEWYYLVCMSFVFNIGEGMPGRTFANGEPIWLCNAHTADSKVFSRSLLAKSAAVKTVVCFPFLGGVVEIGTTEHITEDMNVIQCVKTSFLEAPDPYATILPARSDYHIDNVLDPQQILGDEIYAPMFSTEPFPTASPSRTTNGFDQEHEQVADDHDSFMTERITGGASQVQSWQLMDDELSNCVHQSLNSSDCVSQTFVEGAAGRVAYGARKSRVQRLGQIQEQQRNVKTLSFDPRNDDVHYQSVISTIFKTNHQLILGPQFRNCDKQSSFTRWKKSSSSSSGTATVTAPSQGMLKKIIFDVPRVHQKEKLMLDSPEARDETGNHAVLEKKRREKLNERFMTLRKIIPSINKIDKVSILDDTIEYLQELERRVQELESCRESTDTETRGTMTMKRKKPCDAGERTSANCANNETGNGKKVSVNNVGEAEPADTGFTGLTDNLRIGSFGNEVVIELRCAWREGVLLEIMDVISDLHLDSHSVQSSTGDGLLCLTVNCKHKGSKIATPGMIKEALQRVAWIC

With MYB47 (from UniProt Q9M9U2), the binding entry in test [1] and in test [2] was “binds” each time. For “MYB75 with mutated RB motif (from UniProt Q9FE25)”, the binding result in test [3] is listed as “no binding”.
